Test results from US20200199537A1, “LIVER ORGANOID COMPOSITIONS AND METHODS OF MAKING AND USING SAME” (Children's Hospital Medical Center, priority 2017, published 2020).

Test system: human liver organoids

## CCCCc1oc2ccccc2c1C(=O)c1cc(I)c(OCCN(CC)CC)c(I)c1 [amiodarone]
  toxicity to organoids / viability within the tested dose range: significantly toxic
